Where “and” joins values, the source holds several entries; their conditions need not be identical. Equal entries are not always repeated. The campaign covered roughly 300,000 compounds. About 5,400 (1.8%) were called active. This list was built around the results that the source calls inconclusive (neither active nor inactive); the mix of calls is not that of the screen. The call rests on the fitted dose curve; tested in HEK293 cells. A potency beside an inconclusive call is a rough fit, not a confirmed value.
assay: qHTS for inhibitors of binding or entry into cells for Marburg Virus; settings: Marburg virus pseudotyped entry inhibition, cell reporter; activity change, negative = inhibition: at 37.8 µM (top of the series) unless noted
On the % scale 0 is the no-effect control and ±100 the full control effect; potency means the concentration at half of the fitted maximal effect.

SMILES	Potency	activity change, negative = inhibition
O[C@@H]1CN(C2CCN(Cc3ccccc3)CC2)CC[C@H]1N1CCCCCC1	inconclusive: 35.5 µM [inhibitor, partial curve, poor fit]	–
Cc1nc(S/C(=C\c2ccc(OCc3ccccc3Cl)cc2)C(=O)O)n[nH]1	–	inactive: 9.73%
CCCOC(=O)c1ccc(Oc2cn[nH]c2-c2ccc(OCC)cc2O)cc1	inconclusive: 35.5 µM [inhibitor, single point]	–
Fc1ccc(NC(=S)Nc2ccccc2N2CCOCC2)cc1Cl	inconclusive: 35.5 µM [activator, single point]	–
Nc1ccc2oc3ccc(N)cc3c(=O)c2c1	–	inactive: 7.95%
CN(Cc1cccc(F)c1)C(=O)Cc1ccc(S(=O)(=O)N2CCOCC2)s1	inconclusive: 5.62 µM [activator, single point]	–
O=C(CCS(=O)(=O)c1cccc2nsnc12)Nc1ccc(F)cc1	–	inactive: 2.64% [at 46.1 µM]
COc1ccc2oc(-c3ccc(C)c(NC(=O)COc4cc(C)cc(C)c4)c3)nc2c1	–	inactive: -14.1% [at 46.1 µM]
COc1ccc(-c2csc(NC(=O)COc3ccc(N(C)S(=O)(=O)c4ccc(C)cc4)cc3)n2)cc1	inconclusive: 35.5 µM [inhibitor, partial curve, poor fit]	–
Cc1ccc2oc3c(c(=O)c2c1)C1(C(=O)N(C)c2ccccc21)N(CCCO)C3=O (configuration not stated)	inconclusive: 5.62 µM [activator, single point]	–
CCC(c1nnnn1Cc1ccco1)N(CCc1ccccc1)Cc1cc2cc(C)ccc2[nH]c1=O (configuration not stated)	inconclusive: 10 µM [inhibitor, partial curve, poor fit]	–
C/C(=C\C(=O)c1ccccc1)NNc1nc2ccccc2s1	–	inactive: -1.2% [at 46.1 µM]
Cc1ccc(Cl)cc1N1CCN(CCNC(=O)Nc2ccccc2Cl)CC1	–	inactive: 5.73% [at 46.1 µM]
COc1ccc(NS(=O)(=O)c2cc(OCC(N)=O)c(C)cc2Cl)cc1	inconclusive: 0.794 µM [activator, partial curve, poor fit]	–
COC(=O)c1nc2n(n1)C(c1cc(OC)ccc1OC)C(C(=O)Nc1ccc(C)cc1C)=C(C)N2 (configuration not stated)	–	inactive: 1.21% [at 46.1 µM]
O=C(O)C(C(=O)/C=C/c1ccco1)=C1SCCS1	–	inactive: 3.15%
N#Cc1cc2c(nc1SCC(=O)N1CCOCC1)CCCCC2	–	inactive: -29.2%
CCCS/C(N)=N/N=C/c1ccccc1O	inconclusive: 0.708 µM [activator, single point]	–
Cc1ccc(NC(=O)C(Cc2c[nH]c3ccccc23)NC(=O)OCC(C)C)cc1 (configuration not stated)	inconclusive: 35.5 µM [inhibitor, single point]	–
O=C(Nc1ccc(C(=O)N2CCCCC2)cc1)c1ccc([N+](=O)[O-])cc1	inconclusive: 1.41 µM [inhibitor, partial curve, poor fit]	–
CCOC(=O)c1c(-c2ccc(OC)cc2)oc2ccc(O)cc12	inconclusive: 35.5 µM [inhibitor, single point]	–
CCNc1oc(-c2ccccc2F)nc1S(=O)(=O)c1ccccc1	–	inactive: -19.3%
CCN(CC(=O)NCc1ccc(Cl)cc1)C(=O)/C=C/c1ccc(C#N)cc1	–	inactive: -4.67% [at 46.1 µM]
CCC(=O)N(Cc1cc(=O)[nH]c2ccccc12)c1ccc(OC)cc1	inconclusive: 11.2 µM [inhibitor, partial curve, poor fit]	–

SMILES	Potency	activity change, negative = inhibition
O=C(CSc1ccc(C(F)(F)F)cc1[N+](=O)[O-])NCCOc1ccccc1	inconclusive: 8.91 µM [activator, partial curve, poor fit]	–
Nc1nonc1-c1noc(-c2ccccc2)n1	inconclusive: 18.3 µM [activator, single point]	–
CC(=O)/C=C/n1c(=S)oc2ccccc21	active: 13 µM	–
O=C(NC1CCCc2ccccc21)c1cccc(S(=O)(=O)N2CCN(c3ccccc3)CC2)c1 (configuration not stated)	–	inactive: -44.2%
O=c1cc(CO)oc(C(Nc2ccccn2)c2ccc(F)cc2)c1O (configuration not stated)	–	inactive: 6.38%
COc1cccc(C(C(=O)NC2CCCC2)N(C(=O)c2ccco2)c2ccccc2F)c1OC (configuration not stated)	inconclusive: 20 µM [inhibitor, single point]	–
CCOC(=O)c1c(CSC(=N)N)n(C)c2cc(Br)c(OC(C)=O)cc12	inconclusive: 25.1 µM [inhibitor, single point]	–
CCOc1ccccc1NC(=O)C1CCCN1C(=O)OCc1ccccc1 (configuration not stated)	–	inactive: -4.94% [at 46.1 µM]
COc1ccc(NS(=O)(=O)c2cccc(C(=O)NNC(=O)COc3ccccc3)c2)cc1	inconclusive: 2.51 µM [inhibitor, partial curve, poor fit]	–
Ic1ccccc1CNC1C2CCN(CC2)C1C(c1ccccc1)c1ccccc1 (configuration not stated)	active: 2.82 µM and active: 4.61 µM	–
CC(C)CNC(=O)C(=O)NCC1OCCN1S(=O)(=O)c1cccs1 (configuration not stated)	inconclusive: 12.6 µM [activator, single point]	–
Cc1cccc(N2C(=O)CC(N3CCN(Cc4ccc(Cl)cc4)CC3)C2=O)c1 (configuration not stated)	–	inactive: -3.25%
COc1ccc(NC(=O)CSc2ccccn2)c([N+](=O)[O-])c1	inconclusive: 3.55 µM [activator, single point]	–
CCOc1ccccc1NC(=O)Cn1c(=O)n(Cc2ccccc2)c(=O)c2cccnc21	–	inactive: 14% [at 46.1 µM]
O=C(Nc1ccc(S(=O)(=O)N2CCCCC2)cc1)C1CC1	inconclusive: 3.16 µM [inhibitor, single point]	–
O=C(CNC(=O)c1cccs1)NCCc1ccco1	inconclusive: 15.8 µM [activator, single point]	–
CCCC(=O)Nc1ccc2c(c1)nc(CCN1CCCCC1)n2C	–	inactive: 1.64% [at 46.1 µM]
NC(=NCc1ccc(Cl)c(Cl)c1)NC(=O)c1nc(Cl)c(N)nc1N	active: 2.51 µM	–
C/C(CC(=O)NCc1ccco1)=N\NC(=O)COc1ccc(Cl)cc1Cl	inconclusive: 3.55 µM [inhibitor, full curve]	–
COc1ccccc1OCc1nnc(SCC(=O)Nc2ccc(N3CCOCC3)cc2)n1C	–	inactive: 1.09% [at 46.1 µM]
Cc1cccc(N2CCN(C(=S)c3ccc4c(c3)OCO4)CC2)c1	inconclusive: 1.26 µM [inhibitor, full curve, poor fit]	–
O=C(COc1ccccc1Cl)N1CCc2ccccc2C1	–	inactive: 14.9%
COc1cccc(/C=N/NC(=O)C(=O)Nc2ccccc2OC(F)(F)C(F)F)c1	inconclusive: 11.2 µM [inhibitor, partial curve, poor fit]	–

Reference: PubChem BioAssay AID540276 (National Center for Advancing Translational Sciences (NCATS), 2011)
